From paper doi:10.1101/2023.04.22.537891 come the findings set out here.

The subject of series [1] is TaNAM-A1c (Triticum aestivum). The series is described as follows: EMSA.
Series [2] concerns TaNAM-A1d (Triticum aestivum (178A allele)). Briefly: EMSA.

Construct, isoform or probe ends are uncertain for at least one entry. At least one verdict was read from the data and is not stated in words by the source.

For the sequence “TTTCAACAAGTGGTTACATACGGAACAAAATGAGTGAATCTACACT (double strand) [proTaHMA2like-7A EMSA probe (HMA2site2)]”, the binding result in series [1] and in series [2] was “binds” throughout.

As to “GATTCCTAATGGGCCGGCGTACGCAACTGGTTTGTTACCGCGTGTCG (double strand) [proTaIDS3-7A EMSA probe (IDS3site2)]”, the binding result in series [1] and in series [2] was “binds” each time.

“AAGGATGGCCGGCACTTACGCAACCTGTCCTTAGACCCCCACAGAAC (double strand) [proTaPAO-4B EMSA probe (PAOsite2)]”: the binding result in series [1] and in series [2] was “binds” throughout.
